Test results published in the supplement of paper PMC12823440, “Inhibitors supercharge kinase turnover through native proteolytic circuits” (Nature, 2025).
Structures can show the parent of a compound that is named as a salt. This is one part of the list. The calls rarely recur for the same compound in another form.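 Kinases, fused to nanoluciferase, were expressed in K562 cells; luminescence was measured every 4 h from 2 to 18 h as percent of control (DMSO = 100%, positive control = 0%). A time point is decreased if signal falls significantly (2 sigma). Hits were called by the authors by a rule that is not shown; the count of time points alone does not decide it.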

Sequences of proteins named here, by UniProt entry; tags and fusion partners are left off. A change or cut given only in a name is not applied to a line headed by its entry.
UniProt Q16288, whole entry, looked up: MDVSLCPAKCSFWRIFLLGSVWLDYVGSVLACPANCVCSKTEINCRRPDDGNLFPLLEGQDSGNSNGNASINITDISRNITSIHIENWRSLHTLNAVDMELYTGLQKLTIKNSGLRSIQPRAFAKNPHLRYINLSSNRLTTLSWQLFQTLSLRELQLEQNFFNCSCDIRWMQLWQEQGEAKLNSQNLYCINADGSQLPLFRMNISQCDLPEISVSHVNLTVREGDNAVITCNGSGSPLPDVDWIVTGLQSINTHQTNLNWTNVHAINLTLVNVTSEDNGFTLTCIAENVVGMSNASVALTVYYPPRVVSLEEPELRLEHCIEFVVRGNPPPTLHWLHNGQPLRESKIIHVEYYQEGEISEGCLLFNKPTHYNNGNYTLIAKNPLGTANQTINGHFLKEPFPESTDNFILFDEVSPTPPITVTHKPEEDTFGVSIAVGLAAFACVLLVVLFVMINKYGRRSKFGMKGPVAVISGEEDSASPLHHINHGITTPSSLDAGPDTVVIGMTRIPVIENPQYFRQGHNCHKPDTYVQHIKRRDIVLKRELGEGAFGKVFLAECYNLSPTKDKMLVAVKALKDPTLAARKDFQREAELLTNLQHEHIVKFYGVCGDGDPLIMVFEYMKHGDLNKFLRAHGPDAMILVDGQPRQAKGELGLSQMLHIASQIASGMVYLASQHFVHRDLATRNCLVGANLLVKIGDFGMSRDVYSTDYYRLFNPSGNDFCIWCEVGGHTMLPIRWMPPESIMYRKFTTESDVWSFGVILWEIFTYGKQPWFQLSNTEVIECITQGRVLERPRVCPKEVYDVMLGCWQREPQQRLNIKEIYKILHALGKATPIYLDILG
UniProt O96013: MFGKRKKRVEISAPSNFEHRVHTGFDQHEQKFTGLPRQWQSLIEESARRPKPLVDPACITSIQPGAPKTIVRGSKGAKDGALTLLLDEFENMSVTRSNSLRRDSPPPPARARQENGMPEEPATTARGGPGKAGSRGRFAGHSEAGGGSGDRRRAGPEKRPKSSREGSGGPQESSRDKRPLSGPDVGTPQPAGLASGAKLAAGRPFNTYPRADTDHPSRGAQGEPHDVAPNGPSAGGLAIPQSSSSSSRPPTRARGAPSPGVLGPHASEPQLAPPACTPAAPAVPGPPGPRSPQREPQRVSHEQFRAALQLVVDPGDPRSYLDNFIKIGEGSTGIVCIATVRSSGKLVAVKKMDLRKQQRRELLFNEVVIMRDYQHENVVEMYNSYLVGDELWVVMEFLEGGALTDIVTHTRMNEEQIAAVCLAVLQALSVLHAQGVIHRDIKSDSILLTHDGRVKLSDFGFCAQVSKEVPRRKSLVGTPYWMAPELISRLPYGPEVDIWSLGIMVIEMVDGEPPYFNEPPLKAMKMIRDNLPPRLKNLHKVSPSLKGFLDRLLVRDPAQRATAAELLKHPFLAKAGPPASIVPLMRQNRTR
UniProt Q15118, whole entry, looked up: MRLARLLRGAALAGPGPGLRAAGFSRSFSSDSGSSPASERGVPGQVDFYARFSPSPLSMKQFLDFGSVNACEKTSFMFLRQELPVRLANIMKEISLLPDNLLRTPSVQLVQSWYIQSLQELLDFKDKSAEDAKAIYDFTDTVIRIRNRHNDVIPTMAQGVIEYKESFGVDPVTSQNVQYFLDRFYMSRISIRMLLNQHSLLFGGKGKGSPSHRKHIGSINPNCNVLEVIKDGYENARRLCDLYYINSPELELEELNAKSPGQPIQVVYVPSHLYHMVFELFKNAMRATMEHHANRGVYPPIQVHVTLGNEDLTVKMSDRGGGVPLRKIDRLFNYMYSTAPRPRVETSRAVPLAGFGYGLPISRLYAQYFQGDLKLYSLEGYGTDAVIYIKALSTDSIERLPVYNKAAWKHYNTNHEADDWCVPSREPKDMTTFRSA
UniProt O15530: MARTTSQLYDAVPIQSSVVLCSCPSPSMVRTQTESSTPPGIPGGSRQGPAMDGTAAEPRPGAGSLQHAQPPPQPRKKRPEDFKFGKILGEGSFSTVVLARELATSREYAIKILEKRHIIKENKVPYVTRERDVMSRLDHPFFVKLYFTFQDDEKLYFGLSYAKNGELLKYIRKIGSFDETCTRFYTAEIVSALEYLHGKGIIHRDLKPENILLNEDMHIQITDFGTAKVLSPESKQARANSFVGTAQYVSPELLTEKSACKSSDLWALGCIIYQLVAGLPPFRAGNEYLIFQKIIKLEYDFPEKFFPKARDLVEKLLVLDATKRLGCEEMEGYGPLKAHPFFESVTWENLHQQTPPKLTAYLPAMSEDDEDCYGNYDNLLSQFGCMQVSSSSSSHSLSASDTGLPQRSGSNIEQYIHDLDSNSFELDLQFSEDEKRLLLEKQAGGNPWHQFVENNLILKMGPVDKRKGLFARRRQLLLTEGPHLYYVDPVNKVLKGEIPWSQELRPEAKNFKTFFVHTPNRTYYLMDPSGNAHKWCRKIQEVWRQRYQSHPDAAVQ
UniProt P42356, whole entry, looked up: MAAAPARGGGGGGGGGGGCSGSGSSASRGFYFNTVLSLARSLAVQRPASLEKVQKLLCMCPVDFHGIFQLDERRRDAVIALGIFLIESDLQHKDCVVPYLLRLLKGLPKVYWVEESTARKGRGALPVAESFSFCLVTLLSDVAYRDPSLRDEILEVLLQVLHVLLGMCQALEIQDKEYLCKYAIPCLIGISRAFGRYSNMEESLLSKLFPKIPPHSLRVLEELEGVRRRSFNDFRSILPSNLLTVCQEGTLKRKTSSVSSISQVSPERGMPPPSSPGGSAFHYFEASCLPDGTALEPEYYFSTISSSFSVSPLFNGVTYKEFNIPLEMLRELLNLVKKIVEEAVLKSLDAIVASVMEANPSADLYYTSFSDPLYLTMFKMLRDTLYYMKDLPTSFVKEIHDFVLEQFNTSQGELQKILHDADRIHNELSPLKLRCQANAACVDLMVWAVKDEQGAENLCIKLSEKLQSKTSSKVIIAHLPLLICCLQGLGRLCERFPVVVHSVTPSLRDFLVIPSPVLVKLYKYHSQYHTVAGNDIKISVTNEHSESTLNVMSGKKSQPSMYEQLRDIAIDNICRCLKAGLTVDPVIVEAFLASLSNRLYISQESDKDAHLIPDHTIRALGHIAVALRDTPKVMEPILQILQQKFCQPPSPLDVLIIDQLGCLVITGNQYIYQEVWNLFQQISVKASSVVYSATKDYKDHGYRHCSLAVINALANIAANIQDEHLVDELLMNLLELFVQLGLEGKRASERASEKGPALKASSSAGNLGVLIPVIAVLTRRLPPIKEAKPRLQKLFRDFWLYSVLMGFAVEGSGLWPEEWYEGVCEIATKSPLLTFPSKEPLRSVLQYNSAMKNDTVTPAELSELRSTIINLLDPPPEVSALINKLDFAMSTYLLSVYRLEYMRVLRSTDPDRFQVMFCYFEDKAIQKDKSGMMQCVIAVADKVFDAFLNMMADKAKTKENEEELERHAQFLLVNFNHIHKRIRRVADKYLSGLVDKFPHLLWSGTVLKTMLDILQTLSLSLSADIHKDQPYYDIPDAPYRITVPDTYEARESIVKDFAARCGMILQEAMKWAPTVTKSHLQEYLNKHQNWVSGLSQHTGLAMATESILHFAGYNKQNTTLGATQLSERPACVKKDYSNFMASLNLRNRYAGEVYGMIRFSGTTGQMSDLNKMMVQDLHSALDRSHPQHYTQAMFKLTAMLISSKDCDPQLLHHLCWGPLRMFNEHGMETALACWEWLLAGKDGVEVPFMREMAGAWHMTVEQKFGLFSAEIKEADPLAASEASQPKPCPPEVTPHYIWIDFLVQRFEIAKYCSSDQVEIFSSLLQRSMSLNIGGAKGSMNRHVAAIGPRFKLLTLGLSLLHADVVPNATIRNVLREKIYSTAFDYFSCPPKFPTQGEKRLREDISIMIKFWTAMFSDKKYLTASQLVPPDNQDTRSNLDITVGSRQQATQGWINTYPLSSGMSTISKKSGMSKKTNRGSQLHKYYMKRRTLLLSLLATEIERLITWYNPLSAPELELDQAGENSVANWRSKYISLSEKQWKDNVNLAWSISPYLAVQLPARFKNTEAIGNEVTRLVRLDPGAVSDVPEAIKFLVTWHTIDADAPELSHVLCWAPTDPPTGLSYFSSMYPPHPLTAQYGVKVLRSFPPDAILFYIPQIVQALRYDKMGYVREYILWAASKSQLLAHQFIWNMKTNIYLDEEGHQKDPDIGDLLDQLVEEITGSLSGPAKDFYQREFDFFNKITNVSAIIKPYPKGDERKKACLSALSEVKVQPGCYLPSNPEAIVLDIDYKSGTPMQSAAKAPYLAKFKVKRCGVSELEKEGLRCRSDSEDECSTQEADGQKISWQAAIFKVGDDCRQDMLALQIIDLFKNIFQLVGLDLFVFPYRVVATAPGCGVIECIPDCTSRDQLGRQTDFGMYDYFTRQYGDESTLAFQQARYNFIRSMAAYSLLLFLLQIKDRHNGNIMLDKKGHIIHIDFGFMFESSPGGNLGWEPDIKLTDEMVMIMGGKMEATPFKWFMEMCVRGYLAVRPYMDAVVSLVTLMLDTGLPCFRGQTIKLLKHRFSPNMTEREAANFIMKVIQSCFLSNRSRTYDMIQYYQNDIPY
UniProt Q9UBF8: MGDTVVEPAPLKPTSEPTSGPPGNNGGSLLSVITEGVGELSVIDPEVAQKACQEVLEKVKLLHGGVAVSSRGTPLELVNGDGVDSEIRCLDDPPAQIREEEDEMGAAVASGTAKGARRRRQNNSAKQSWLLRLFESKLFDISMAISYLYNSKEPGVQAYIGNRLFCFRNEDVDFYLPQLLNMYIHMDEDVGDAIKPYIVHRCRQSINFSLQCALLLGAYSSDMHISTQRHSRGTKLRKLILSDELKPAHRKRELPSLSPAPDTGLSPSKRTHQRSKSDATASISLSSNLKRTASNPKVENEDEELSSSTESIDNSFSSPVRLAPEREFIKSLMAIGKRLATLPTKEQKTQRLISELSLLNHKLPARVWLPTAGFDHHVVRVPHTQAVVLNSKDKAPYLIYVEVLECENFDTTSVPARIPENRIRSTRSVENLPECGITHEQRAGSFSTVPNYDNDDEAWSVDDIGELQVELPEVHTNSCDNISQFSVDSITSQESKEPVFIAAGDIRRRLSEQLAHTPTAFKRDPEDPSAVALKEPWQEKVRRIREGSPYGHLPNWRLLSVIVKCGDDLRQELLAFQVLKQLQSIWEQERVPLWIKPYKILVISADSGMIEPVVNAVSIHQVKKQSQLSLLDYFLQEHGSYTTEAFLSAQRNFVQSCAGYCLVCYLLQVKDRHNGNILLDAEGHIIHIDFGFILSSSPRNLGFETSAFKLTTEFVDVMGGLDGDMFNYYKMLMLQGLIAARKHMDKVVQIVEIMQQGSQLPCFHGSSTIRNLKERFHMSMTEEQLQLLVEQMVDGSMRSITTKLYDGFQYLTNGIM
UniProt P53350, whole entry: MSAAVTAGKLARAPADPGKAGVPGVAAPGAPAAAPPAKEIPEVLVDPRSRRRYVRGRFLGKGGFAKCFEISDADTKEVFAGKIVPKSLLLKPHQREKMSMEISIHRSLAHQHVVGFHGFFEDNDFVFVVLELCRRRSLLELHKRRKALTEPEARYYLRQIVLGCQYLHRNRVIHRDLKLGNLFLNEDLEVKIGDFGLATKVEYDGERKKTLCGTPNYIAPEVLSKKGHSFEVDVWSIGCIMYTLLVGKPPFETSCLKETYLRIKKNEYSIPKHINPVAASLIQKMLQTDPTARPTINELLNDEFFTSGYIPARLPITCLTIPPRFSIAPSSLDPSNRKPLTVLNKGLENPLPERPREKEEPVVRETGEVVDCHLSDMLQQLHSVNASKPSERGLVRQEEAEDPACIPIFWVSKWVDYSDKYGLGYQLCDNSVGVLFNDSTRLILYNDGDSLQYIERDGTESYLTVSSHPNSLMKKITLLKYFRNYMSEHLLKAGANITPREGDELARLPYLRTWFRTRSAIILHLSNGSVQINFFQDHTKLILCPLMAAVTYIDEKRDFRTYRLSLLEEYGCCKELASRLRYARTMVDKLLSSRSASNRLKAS
UniProt Q13131: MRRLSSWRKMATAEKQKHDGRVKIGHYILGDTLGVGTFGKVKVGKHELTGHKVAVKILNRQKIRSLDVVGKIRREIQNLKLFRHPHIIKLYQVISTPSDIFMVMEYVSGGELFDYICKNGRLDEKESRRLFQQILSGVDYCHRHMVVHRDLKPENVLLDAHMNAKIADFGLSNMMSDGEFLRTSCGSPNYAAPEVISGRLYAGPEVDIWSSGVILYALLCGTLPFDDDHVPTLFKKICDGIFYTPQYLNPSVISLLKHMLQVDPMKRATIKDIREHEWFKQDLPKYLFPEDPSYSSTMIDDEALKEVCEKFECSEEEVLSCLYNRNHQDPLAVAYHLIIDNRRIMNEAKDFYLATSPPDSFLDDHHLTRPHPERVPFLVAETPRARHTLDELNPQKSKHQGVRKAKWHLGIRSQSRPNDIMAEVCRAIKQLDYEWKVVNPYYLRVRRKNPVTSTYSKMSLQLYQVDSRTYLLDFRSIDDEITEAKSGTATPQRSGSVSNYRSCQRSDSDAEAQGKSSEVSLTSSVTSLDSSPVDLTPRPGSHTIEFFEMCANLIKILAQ

Key:
Assay in all cases: number of time points (of 5) at which kinase-Nluc abundance scored as decreased, DMSO-normalised (count); higher = more persistent destabilization
Details in all cases: K562; 2-18 h
[1] = molecular target: NTRK3 (UniProt Q16288)
[2] = molecular target: PAK4 (UniProt O96013)
[3] = molecular target: PBK (UniProt Q96KB5)
[4] = molecular target: PDGFRB (UniProt P09619)
[5] = molecular target: PDK1 (UniProt Q15118)
[6] = molecular target: PDPK1 (UniProt O15530)
[7] = molecular target: PIK4CA (UniProt P42356)
[8] = molecular target: PIK4CB (UniProt Q9UBF8)
[9] = molecular target: PLK1 (UniProt P53350)
[10] = molecular target: PRKAA1 (UniProt Q13131)

Measured: number of time points

O=c1[nH]nc(Sc2ncc([N+](=O)[O-])s2)n1-c1ccc2c(c1)OCCO2 (2.5 µM)
1: [9]
0: all other assays above

O=c1ccc2cc(O)c(O)cc2o1 [Esculetin] (10 µM)
0: all assays above

Cn1cc(C2=C(c3c4n(c5ccccc35)CCC(CN)C4)C(=O)NC2=O)c2ccccc21 (stereo not given) [Bisindolylmaleimide X (hydrochloride)] (2.5 µM)
0: all assays above

C=CC(=O)Nc1cccc(Nc2nc(Nc3ccc(Oc4ccnc(C(=O)NC)c4)cc3)ncc2F)c1 (2.5 µM)
0: all assays above

NC(=O)c1ccc2nc(-c3ccc(C4(N)CCC4)cc3)c(-c3ccccc3)n2n1 (10 µM)
0: all assays above

CC(=O)NCC(=O)N[C@@H](C)C(=O)N[C@@H](CCC(N)=O)C(=O)N[C@@H](Cc1ccccc1)C(=O)N[C@@H](CO)C(=O)N[C@@H](CCCCN)C(=O)N[C@H](C(=O)N[C@@H](C)C(=O)N[C@@H](C)C(=O)N[C@@H](CCCCN)C(=O)O)[C@@H](C)O (10 µM)
0: all assays above

CNC(=O)c1c(C)oc2cc(Oc3ncnc4cc(OC)c(OC)cc34)ccc12 [Fruquintinib] (10 µM)
0: all assays above

C=C[C@H]1[C@H](O[C@@H]2O[C@H](CO)[C@@H](O)[C@H](O)[C@H]2O)OC=C(C(=O)OC)[C@H]1CCOC(=O)c1cc(O)c(O)c(O)c1 [Cornuside] (10 µM)
0: all assays above

O=c1cc(-c2ccc(O)cc2)oc2cc(O)c([C@@H]3O[C@H](CO)[C@@H](O)[C@H](O)[C@H]3O)c(O)c12 [Isovitexin] (10 µM)
0: all assays above

O=C(Nc1ncc(SCCN2CCCC2)s1)[C@]1(c2ccc(S(=O)(=O)C3CC3)cc2)C[C@H]1C1CCCCC1 [Globalagliatin] (2.5 µM)
0: all assays above

COc1cc(Nc2nc3ccccc3nc2NS(=O)(=O)c2ccc(NC(=O)c3ccc(C)c(OC)c3)cc2)cc(OC)c1 (10 µM)
0: all assays above

COc1ncc2cc(C(=O)Nc3cc(C(=O)NCc4cccc(Cl)c4)ccc3Cl)c(=O)[nH]c2n1 (2.5 µM)
0: all assays above

O=S(=O)(N=Cc1c(O)ccc2ccccc12)c1cccs1 (10 µM)
0: all assays above

O=C(N=c1sccn1Cc1ccccc1)c1c[nH]c2ncccc12 (10 µM)
0: all assays above

Cc1c(C(=O)Nc2ccc(Oc3ccnc4cc(OCC(C)(C)O)ccc34)c(F)c2)c(=O)n(-c2ccccc2)n1C [Ningetinib Tosylate] (10 µM)
3: [4] | [6]
1: [1]
0: all other assays above

Cc1cccc(-c2[nH]c(C(C)(C)C)nc2-c2ccc3c(c2)OCO3)n1 (2.5 µM)
0: all assays above

CNC[C@@H](NC(=O)c1ccc(-c2nc([C@H]3CC[C@H](O)[C@@H](F)C3)cnc2N)cc1F)c1cc(F)cc(Br)c1 [Rineterkib] (10 µM)
0: all assays above

OCCC#Cc1nc(-c2ccc(F)cc2)c(-c2ccncc2)n1CCCc1ccccc1 (2.5 µM)
0: all assays above

C[C@H](CC[C@@H](O)C(C)(C)O)[C@H]1CC[C@@]2(C)[C@@H]3CC=C4[C@@H](CC[C@H](O)C4(C)C)[C@]3(C)[C@H](O)C[C@]12C [Mogrol] (10 µM)
0: all assays above

Cc1cc(/C=C2\CC/C(=C\c3cc(C)c(O)c(C)c3)C2=O)cc(C)c1O [Pentagamavunon-1] (2.5 µM)
2: [7]
0: all other assays above

COc1ccc(COc2cc3oc(=O)c4cc(C(C)O)ccc4c3cc2OC)cc1 (stereo not given) [Palomid 529] (2.5 µM)
0: all assays above

CCOC(=O)C1=C[C@]2(CC)CCCN3CCc4c(n1c1ccccc41)[C@@H]32 [Vinpocetine] (10 µM)
0: all assays above

COc1cc(OC)c(/C=C/S(=O)(=O)Cc2ccc(OC)c(NCC(=O)O)c2)c(OC)c1 [Rigosertib (sodium)] (10 µM)
3: [1]
2: [4]
4: [6]
1: [10]
0: all other assays above

CC(C)Cn1cc(C#N)c2cc(Oc3ccc(NC(=O)[C@@H]4CCCN4)cc3)ccc21 (10 µM)
0: all assays above

CC1=C(C(=O)Nc2ccc3[nH]ncc3c2)C(c2ccc(F)c(C(=O)NCc3ccccn3)c2)NC(=O)N1 (stereo not given) (10 µM)
0: all assays above

CC(C)=CCC/C(C)=C/CC/C(C)=C/CSc1ccccc1C(=O)O [Salirasib] (10 µM)
0: all assays above

COc1ccc(F)cc1C(=O)NCc1ccc(-c2nn([C@@H](C)C(F)(F)F)c(N)c2C(N)=O)cc1 [Pirtobrutinib] (10 µM)
0: all assays above

C=CC(=O)N1CCC[C@@H](n2c(=O)n(-c3ccc(Oc4ccccc4)cc3)c3c(N)nccc32)C1 [Tolebrutinib] (10 µM)
0: all assays above

Nc1nc2c(ncn2COCCO)c(=O)[nH]1 [Acyclovir] (10 µM)
0: all assays above

O=C(CCc1ccc2n1[B-](F)(F)[N+]1=C(c3ccc[nH]3)C=CC1=C2)ON1C(=O)CCC1=O [Py-BODIPY-NHS ester] (2.5 µM)
0: all assays above

O=c1sn(-c2cccc3ccccc23)c(=O)n1Cc1ccccc1 [Tideglusib] (10 µM)
0: all assays above

CC(C)n1cnnc1-c1cccc(NC(=O)c2cc3ccc(F)cc3[nH]2)n1 (2.5 µM)
3: [1]
2: [4] | [8] | [10]
4: [6]
0: all other assays above

For convenience, eight of the compounds above:
NC(=O)c1ccc2nc(-c3ccc(C4(N)CCC4)cc3)c(-c3ccccc3)n2n1 (10 µM)
0: all assays above

CC(=O)NCC(=O)N[C@@H](C)C(=O)N[C@@H](CCC(N)=O)C(=O)N[C@@H](Cc1ccccc1)C(=O)N[C@@H](CO)C(=O)N[C@@H](CCCCN)C(=O)N[C@H](C(=O)N[C@@H](C)C(=O)N[C@@H](C)C(=O)N[C@@H](CCCCN)C(=O)O)[C@@H](C)O (10 µM)
0: all assays above

CNC(=O)c1c(C)oc2cc(Oc3ncnc4cc(OC)c(OC)cc34)ccc12 [Fruquintinib] (10 µM)
0: all assays above

C=C[C@H]1[C@H](O[C@@H]2O[C@H](CO)[C@@H](O)[C@H](O)[C@H]2O)OC=C(C(=O)OC)[C@H]1CCOC(=O)c1cc(O)c(O)c(O)c1 [Cornuside] (10 µM)
0: all assays above

O=c1cc(-c2ccc(O)cc2)oc2cc(O)c([C@@H]3O[C@H](CO)[C@@H](O)[C@H](O)[C@H]3O)c(O)c12 [Isovitexin] (10 µM)
0: all assays above

O=C(Nc1ncc(SCCN2CCCC2)s1)[C@]1(c2ccc(S(=O)(=O)C3CC3)cc2)C[C@H]1C1CCCCC1 [Globalagliatin] (2.5 µM)
0: all assays above

COc1cc(Nc2nc3ccccc3nc2NS(=O)(=O)c2ccc(NC(=O)c3ccc(C)c(OC)c3)cc2)cc(OC)c1 (10 µM)
0: all assays above

COc1ncc2cc(C(=O)Nc3cc(C(=O)NCc4cccc(Cl)c4)ccc3Cl)c(=O)[nH]c2n1 (2.5 µM)
0: all assays above

(listing goes on)

COC[C@H]1Cn2cc(-c3nc(Nc4ccnn4C)ncc3C)nc2C(=O)N1Cc1ccc(F)c(F)c1 (10 µM)
0: all assays above

COc1cccc(Nc2ncnn3ccc(CN4CC[C@@H](N)[C@H](O)C4)c23)c1 (2.5 µM)
2: [6]
1: [8]
0: all other assays above

CNCCOc1ccccc1C(C)(C)Nc1nccn(-c2cc(C(=O)NC3CC3)ccc2C)c1=O [p38α inhibitor 2] (10 µM)
0: all assays above
